According to PubChem BioAssay AID330 (DTP/NCI, 2004):
The list shows only some results of the screen, not a fair sample: it gathers tests that were run many times, whatever their T/C, doses with no T/C, and many T/C values between a quarter and a half above the control. Other doses and runs of a compound stand elsewhere. T/C is the treated group as % of the vehicle group. Some entries give survivors of the animals treated and no T/C: the source holds a T/C of zero for them, seemingly a mark for toxic or unscored doses. Some survivor counts are full or nearly so, which does not show that the dose was tolerated: the source hardly ever lists a survival T/C far under the control, and the zero likely stands for such cases as well. Counts of survivors are from the toxicity check (mostly the fifth day) where no day follows; animals may have died later. Schedules are NCI's codes, taken here to give the interval after Q, in days (D) or hours (H), and the number of doses after X. Counts like (3×) count equal records among those shown. Some entries hold several experiments; their values stand side by side, smallest first. For survival time, the PubChem record calls one and a half times the control and up active, and a quarter to a half above the control has no call in these data; cut-offs in other NCI protocols can differ. Some T/C values are followed by the survivors on the day toxicity was checked, most often the fifth; without a count, all were alive then.

Test system: P388 leukemia ip, CD2F1 mice, survival T/C
Assay: NCI In Vivo Anticancer Drug Screen. Data for tumor model P388 Leukemia (intraperitoneal) in CD2F1 (CDF1) mice
Settings: T/C endpoint: median survival time, higher T/C = longer survival
[1] = dose: 25.0 mg/kg/injection, schedule: Q01DX009 (ip), vehicle: other

CO[C@H]1C[C@](C)(O)Cc2cc3c(c(O)c21)C(=O)c1c(O)cc2c(c1C3=O)O[C@@H]1O[C@@]2(C)[C@H](O)[C@@H](N(C)C)[C@@H]1O
T/C (dose: 0.78 mg/kg/injection, schedule: Q01DX009 (ip), vehicle: other): 147 % of control | T/C (dose: 1.25 mg/kg/injection, schedule: Q01DX005 (ip), vehicle: clinical formulation): 144 and 148 % of control | T/C (dose: 1.56 mg/kg/injection, schedule: Q01DX009 (ip), vehicle: other): 138 % of control | T/C (dose: 1.6 mg/kg/injection, schedule: Q01DX009 (ip), vehicle: other): 147, 163, 164, 165 % of control | T/C (dose: 1.6 mg/kg/injection, schedule: Q04DX003 (ip), vehicle: other): 148 % of control | T/C (dose: 3.0 mg/kg/injection, schedule: Q01DX005 (iv), vehicle: clinical formulation): 136 and 138 % of control | T/C (dose: 3.12 mg/kg/injection, schedule: Q01DX009 (ip), vehicle: other): 147, 157, 167, 169 % of control | T/C (dose: 3.13 mg/kg/injection, schedule: Q01DX009 (ip), vehicle: other): 167, 174, 175, 177, 188, 201 % of control | T/C (dose: 3.13 mg/kg/injection, schedule: Q04DX003 (ip), vehicle: other): 143 % of control | T/C (dose: 4.5 mg/kg/injection, schedule: Q01DX005 (iv), vehicle: other, evaluated on day 35): 149 % of control | T/C (dose: 4.5 mg/kg/injection, schedule: Q01DX005 (iv), vehicle: other, evaluated on day 60): 137 % of control | T/C (dose: 4.5 mg/kg/injection, schedule: Q01DX009 (ip), vehicle: other, evaluated on day 45): 180 % of control | T/C (dose: 4.5 mg/kg/injection, schedule: Q01DX009 (ip), vehicle: other, evaluated on day 60): 162, 179, 181, 183 % of control | T/C (dose: 5.0 mg/kg/injection, schedule: Q01DX009 (ip), vehicle: other): 148, 170, 174, 185, 186, 187, 189, 190, 192, 193, 194, 198, 201, 203 % of control | T/C (dose: 6.25 mg/kg/injection, schedule: Q01DX009 (ip), vehicle: other): 164, 190 (2×), 194, 197, 200, 209, 210, 211 (2×), 213, 243 % of control | T/C (dose: 6.25 mg/kg/injection, schedule: Q01DX009 (oral), vehicle: saline): 135 % of control | T/C (dose: 6.7 mg/kg/injection, schedule: Q01DX009 (ip), vehicle: other, evaluated on day 45): 192, 209, 210, 216, 220 % of control (2×) | T/C (dose: 6.7 mg/kg/injection, schedule: Q01DX009 (ip), vehicle: other, evaluated on day 60): 196, 200, 204, 206, 216, 223 % of control | T/C (dose: 10.0 mg/kg/injection, schedule: Q01DX009 (ip), vehicle: other, evaluated on day 30): 101, 200, 207, 218, 221, 222, 224, 232, 238, 254, 259, 263, 274, 281 % of control | T/C (dose: 10.0 mg/kg/injection, schedule: Q01DX009 (ip), vehicle: other, evaluated on day 45): 230, 240, 253, 255, 261, 269 % of control | T/C (dose: 10.0 mg/kg/injection, schedule: Q01DX009 (ip), vehicle: other, evaluated on day 60): 225, 227, 230, 242, 247, 262 % of control | T/C (dose: 12.5 mg/kg/injection, schedule: Q01DX009 (ip), vehicle: other): 95, 154, 174, 174 [5 of 6 alive], 222, 227, 235, 242, 250, 257, 285, 297 % of control | T/C (dose: 12.5 mg/kg/injection, schedule: Q01DX009 (oral), vehicle: other): 137 and 148 % of control | T/C (dose: 15.0 mg/kg/injection, schedule: Q01DX005 (iv), vehicle: other): 145 % of control | T/C (dose: 15.0 mg/kg/injection, schedule: Q01DX009 (ip), vehicle: other, evaluated on day 45): 291, 313, 329, 338, 383, 386 % of control | T/C (dose: 15.0 mg/kg/injection, schedule: Q01DX009 (ip), vehicle: other, evaluated on day 60): 295, 297, 298, 299, 306, 339 % of control | survivor count (dose: 15.0 mg/kg/injection, schedule: Q01DX009 (ip), vehicle: other): 10 of 10 | T/C (dose: 20.0 mg/kg/injection, schedule: Q01DX009 (ip), vehicle: other, evaluated on day 30): 86, 91, 97, 104 % of control [5 of 6 alive] | T/C (dose: 20.0 mg/kg/injection, schedule: Q01DX009 (ip), vehicle: other, evaluated on day 45): 174 % of control | survivor count (dose: 20.0 mg/kg/injection, schedule: Q01DX009 (ip), vehicle: other): 6 of 6 (2×) | survivor count (dose: 22.0 mg/kg/injection, schedule: Q01DX005 (iv), vehicle: other): 4 of 10 | survivor count (dose: 22.0 mg/kg/injection, schedule: Q01DX009 (ip), vehicle: other): 10 of 10 | survivor count (dose: 22.5 mg/kg/injection, schedule: Q01DX005 (iv), vehicle: clinical formulation): 10 of 10 | survivor count (dose: 22.5 mg/kg/injection, schedule: Q01DX005 (iv), vehicle: other): 4 of 10 | T/C (dose: 22.5 mg/kg/injection, schedule: Q01DX009 (ip), vehicle: other, evaluated on day 45): 112, 114, 117, 123 % of control (2×) | T/C (dose: 22.5 mg/kg/injection, schedule: Q01DX009 (ip), vehicle: other, evaluated on day 60): 98, 100, 107, 145 % of control | T/C [1]: 87, 101, 102, 127, 209 % of control | survivor count [1]: 3 of 6, 5 of 6, 6 of 6 (2×) | survivor count (dose: 33.0 mg/kg/injection, schedule: Q01DX009 (ip), vehicle: other): 9 of 10 | T/C (dose: 33.0 mg/kg/injection, schedule: Q01DX009 (oral), vehicle: other): 136 % of control | survivor count (dose: 40.0 mg/kg/injection, schedule: Q01DX005 (ip), vehicle: clinical formulation): 10 of 10 | survivor count (dose: 40.0 mg/kg/injection, schedule: Q01DX005 (ip), vehicle: distilled water + Tween-80): 6 of 6 | survivor count (dose: 40.0 mg/kg/injection, schedule: Q01DX005 (ip), vehicle: other): 9 of 10 | survivor count (dose: 50.0 mg/kg/injection, schedule: Q01DX009 (ip), vehicle: other): 0 of 10 and 6 of 6 | survivor count (dose: 50.0 mg/kg/injection, schedule: Q04DX003 (ip), vehicle: other): 8 of 8 | survivor count (dose: 75.0 mg/kg/injection, schedule: Q01DX009 (ip), vehicle: other): 0 of 10 | survivor count (dose: 75.0 mg/kg/injection, schedule: Q01DX009 (oral), vehicle: other): 10 of 10 | survivor count (dose: 100.0 mg/kg/injection, schedule: Q01DX001 (ip), vehicle: other): 5 of 6 | T/C (dose: 100.0 mg/kg/injection, schedule: Q01DX001 (sc), vehicle: other): 134 % of control | survivor count (dose: 200.0 mg/kg/injection, schedule: Q01DX001 (ip), vehicle: other): 1 of 6

CCCCCCCCOc1cc2cc(O)oc3cc(=O)cc(o1)c23
T/C (dose: 240.0 mg/kg/injection, schedule: Q01DX005 (ip), vehicle: saline): 126 % of control

c1cnc2n[se]nc2c1
survivor count (dose: 25.0 mg/kg/injection, schedule: Q04DX002 (ip), vehicle: saline): 1 of 6 | survivor count (dose: 100.0 mg/kg/injection, schedule: Q04DX002 (ip), vehicle: saline): 0 of 6 | survivor count (dose: 200.0 mg/kg/injection, schedule: Q04DX002 (ip), vehicle: saline): 0 of 6 | survivor count (dose: 400.0 mg/kg/injection, schedule: Q04DX002 (ip), vehicle: saline): 0 of 6

COc1c2c(c(Cc3c4c(c(OC)c5c3OCO5)OC(C)C4)c3c1OCO3)CC(C)O2 (stereo unspecified)
survivor count (dose: 100.0 mg/kg/injection, schedule: Q01DX005 (ip), vehicle: saline with Tween-80): 6 of 6 | survivor count (dose: 200.0 mg/kg/injection, schedule: Q01DX005 (ip), vehicle: saline with Tween-80): 6 of 6

CN(C)c1ccc(/C=N/N=C(/C#N)[S][Sn]([S]/C(C#N)=N/N=C/c2ccc(N(C)C)cc2)([c]2ccccc2)[c]2ccccc2)cc1
survivor count (dose: 30.0 mg/kg/injection, schedule: Q01DX005 (ip), vehicle: saline with Tween-80): 3 of 6 | survivor count (dose: 60.0 mg/kg/injection, schedule: Q01DX005 (ip), vehicle: saline with Tween-80): 0 of 6 | survivor count (dose: 120.0 mg/kg/injection, schedule: Q01DX005 (ip), vehicle: saline with Tween-80): 0 of 6 | survivor count (dose: 240.0 mg/kg/injection, schedule: Q01DX005 (ip), vehicle: saline with Tween-80): 0 of 6
